{"sequences": {"note": "By UniProt entry, the sequences of proteins in these tests, tags left out. Where a name states a change or a piece, a line headed by the entry shows the natural chain unless it says otherwise.", "UniProt P49023, whole entry": "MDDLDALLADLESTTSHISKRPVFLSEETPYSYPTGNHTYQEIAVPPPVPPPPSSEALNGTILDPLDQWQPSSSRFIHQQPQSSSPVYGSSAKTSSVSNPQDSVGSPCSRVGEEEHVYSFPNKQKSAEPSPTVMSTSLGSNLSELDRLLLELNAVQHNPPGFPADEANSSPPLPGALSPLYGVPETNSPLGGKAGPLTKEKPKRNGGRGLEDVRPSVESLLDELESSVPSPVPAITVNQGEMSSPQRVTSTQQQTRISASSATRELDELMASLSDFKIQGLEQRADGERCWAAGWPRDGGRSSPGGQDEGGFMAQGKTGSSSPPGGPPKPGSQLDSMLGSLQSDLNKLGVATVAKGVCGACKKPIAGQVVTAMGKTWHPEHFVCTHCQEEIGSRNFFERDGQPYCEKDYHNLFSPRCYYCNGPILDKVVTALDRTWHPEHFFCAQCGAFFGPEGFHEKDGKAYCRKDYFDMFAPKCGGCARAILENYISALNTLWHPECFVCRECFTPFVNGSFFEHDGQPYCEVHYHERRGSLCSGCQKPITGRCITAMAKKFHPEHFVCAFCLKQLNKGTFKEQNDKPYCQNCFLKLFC", "UniProt Q96AX2": "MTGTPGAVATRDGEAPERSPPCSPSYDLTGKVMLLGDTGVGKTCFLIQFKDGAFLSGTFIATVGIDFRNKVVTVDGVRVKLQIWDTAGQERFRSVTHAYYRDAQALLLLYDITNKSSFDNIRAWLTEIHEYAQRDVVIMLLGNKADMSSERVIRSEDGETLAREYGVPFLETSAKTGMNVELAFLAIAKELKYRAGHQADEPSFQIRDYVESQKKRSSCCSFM", "UniProt Q86TP1": "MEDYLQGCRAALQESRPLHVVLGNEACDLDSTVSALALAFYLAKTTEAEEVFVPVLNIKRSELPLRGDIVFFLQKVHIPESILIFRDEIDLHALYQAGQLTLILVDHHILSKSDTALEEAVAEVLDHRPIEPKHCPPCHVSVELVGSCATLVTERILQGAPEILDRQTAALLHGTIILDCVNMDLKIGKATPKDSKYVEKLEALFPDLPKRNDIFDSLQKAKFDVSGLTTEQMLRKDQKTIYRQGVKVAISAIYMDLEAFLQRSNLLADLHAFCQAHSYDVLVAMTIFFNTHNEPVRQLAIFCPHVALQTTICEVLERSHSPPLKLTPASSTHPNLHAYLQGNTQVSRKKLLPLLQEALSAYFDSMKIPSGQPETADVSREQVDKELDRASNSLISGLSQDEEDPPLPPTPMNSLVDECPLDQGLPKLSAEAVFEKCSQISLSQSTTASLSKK", "UniProt Q9BW83": "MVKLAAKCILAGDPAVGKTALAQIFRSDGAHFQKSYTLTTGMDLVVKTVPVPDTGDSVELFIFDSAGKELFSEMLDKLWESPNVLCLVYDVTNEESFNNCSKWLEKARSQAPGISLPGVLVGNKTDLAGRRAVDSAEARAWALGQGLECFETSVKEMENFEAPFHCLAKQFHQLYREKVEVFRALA", "UniProt O00391": "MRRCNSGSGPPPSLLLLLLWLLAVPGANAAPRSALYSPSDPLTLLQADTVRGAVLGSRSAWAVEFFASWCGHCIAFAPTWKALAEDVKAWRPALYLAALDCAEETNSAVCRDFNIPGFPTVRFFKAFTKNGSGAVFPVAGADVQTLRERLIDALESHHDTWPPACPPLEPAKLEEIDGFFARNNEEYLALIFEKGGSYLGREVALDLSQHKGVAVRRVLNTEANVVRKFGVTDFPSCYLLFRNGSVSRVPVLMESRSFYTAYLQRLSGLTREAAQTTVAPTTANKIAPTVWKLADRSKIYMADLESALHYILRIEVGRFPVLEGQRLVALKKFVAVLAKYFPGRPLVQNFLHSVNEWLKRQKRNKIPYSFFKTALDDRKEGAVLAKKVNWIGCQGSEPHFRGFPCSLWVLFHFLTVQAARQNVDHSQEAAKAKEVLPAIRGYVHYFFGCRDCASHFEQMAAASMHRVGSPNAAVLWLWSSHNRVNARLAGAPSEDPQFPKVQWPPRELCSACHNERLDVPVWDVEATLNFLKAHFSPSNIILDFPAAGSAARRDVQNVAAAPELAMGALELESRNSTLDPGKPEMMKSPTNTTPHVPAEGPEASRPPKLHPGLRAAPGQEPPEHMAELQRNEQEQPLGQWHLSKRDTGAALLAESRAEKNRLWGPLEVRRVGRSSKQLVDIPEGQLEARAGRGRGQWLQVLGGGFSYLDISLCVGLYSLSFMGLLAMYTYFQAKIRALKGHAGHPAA", "UniProt P61225": "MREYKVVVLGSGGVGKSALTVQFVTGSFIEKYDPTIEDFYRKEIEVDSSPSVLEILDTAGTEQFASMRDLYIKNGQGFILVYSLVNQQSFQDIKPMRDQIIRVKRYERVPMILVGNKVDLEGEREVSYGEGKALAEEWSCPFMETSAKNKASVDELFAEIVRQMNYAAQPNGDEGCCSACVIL", "UniProt Q14761": "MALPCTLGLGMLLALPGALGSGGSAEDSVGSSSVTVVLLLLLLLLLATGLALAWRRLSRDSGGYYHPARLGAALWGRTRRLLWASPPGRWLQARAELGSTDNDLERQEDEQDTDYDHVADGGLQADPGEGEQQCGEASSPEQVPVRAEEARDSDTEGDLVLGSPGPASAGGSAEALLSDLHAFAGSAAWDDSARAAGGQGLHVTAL", "UniProt O43502": "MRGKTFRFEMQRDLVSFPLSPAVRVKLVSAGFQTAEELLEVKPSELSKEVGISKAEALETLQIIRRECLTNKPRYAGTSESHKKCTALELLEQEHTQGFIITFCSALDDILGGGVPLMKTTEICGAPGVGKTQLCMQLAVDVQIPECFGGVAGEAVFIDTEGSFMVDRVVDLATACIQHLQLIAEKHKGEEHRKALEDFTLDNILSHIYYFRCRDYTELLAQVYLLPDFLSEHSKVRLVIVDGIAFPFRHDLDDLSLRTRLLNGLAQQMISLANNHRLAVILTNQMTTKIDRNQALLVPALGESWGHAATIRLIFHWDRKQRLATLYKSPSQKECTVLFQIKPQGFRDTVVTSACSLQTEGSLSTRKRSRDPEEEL", "UniProt Q9Y2K5": "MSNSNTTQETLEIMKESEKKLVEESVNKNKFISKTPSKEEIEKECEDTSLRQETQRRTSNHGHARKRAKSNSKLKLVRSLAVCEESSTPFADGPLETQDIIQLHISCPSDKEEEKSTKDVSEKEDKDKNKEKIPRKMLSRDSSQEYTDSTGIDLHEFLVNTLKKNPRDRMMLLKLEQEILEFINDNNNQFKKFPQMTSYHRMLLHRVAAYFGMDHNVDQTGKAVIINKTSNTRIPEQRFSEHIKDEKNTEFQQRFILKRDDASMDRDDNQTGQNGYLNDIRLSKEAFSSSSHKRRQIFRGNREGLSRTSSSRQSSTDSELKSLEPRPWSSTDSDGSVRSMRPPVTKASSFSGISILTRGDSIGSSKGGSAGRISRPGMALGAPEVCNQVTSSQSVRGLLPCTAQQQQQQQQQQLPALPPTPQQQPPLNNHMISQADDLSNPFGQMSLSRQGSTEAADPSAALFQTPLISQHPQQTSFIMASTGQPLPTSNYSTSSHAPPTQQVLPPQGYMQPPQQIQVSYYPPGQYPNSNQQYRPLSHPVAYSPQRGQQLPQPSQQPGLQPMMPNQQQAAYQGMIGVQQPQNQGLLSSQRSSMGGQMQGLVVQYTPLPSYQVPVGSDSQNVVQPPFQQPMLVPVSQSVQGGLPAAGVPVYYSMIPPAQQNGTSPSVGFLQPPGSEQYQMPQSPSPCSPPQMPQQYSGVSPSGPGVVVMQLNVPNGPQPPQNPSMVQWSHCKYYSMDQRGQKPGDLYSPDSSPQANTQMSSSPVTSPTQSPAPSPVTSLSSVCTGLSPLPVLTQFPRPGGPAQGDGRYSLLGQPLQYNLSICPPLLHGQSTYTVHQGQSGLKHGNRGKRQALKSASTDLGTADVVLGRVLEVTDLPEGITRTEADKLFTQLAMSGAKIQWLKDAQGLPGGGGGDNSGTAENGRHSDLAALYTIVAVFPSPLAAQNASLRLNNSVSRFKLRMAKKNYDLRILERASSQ", "UniProt Q96B01": "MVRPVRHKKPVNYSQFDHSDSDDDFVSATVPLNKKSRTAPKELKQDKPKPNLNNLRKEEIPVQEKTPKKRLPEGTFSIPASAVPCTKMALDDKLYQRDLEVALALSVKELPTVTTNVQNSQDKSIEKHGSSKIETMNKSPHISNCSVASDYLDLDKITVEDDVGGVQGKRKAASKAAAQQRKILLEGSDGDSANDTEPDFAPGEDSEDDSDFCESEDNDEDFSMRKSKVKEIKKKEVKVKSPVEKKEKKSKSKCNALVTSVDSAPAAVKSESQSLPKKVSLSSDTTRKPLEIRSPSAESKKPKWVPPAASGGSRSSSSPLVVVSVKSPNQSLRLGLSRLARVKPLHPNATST", "UniProt Q92530": "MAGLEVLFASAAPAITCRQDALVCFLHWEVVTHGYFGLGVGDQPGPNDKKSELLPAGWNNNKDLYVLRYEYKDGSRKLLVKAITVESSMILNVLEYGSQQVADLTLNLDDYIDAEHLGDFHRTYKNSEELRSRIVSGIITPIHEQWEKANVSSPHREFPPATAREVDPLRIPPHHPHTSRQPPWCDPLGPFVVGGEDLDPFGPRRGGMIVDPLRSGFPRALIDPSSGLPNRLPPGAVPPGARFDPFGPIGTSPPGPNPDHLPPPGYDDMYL", "UniProt Q96QF0": "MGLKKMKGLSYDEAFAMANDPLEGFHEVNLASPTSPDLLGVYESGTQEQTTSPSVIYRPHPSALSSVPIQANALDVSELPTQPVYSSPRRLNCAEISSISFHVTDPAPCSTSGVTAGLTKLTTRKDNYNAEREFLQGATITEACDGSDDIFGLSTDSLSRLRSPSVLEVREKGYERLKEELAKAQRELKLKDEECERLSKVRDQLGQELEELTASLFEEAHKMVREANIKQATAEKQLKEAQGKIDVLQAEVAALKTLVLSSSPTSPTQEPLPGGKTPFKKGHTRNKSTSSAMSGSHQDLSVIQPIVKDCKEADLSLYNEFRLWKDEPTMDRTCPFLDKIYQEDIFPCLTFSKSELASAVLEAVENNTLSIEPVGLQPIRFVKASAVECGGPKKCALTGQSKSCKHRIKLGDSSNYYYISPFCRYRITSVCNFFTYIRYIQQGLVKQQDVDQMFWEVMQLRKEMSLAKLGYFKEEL", "UniProt Q96T37": "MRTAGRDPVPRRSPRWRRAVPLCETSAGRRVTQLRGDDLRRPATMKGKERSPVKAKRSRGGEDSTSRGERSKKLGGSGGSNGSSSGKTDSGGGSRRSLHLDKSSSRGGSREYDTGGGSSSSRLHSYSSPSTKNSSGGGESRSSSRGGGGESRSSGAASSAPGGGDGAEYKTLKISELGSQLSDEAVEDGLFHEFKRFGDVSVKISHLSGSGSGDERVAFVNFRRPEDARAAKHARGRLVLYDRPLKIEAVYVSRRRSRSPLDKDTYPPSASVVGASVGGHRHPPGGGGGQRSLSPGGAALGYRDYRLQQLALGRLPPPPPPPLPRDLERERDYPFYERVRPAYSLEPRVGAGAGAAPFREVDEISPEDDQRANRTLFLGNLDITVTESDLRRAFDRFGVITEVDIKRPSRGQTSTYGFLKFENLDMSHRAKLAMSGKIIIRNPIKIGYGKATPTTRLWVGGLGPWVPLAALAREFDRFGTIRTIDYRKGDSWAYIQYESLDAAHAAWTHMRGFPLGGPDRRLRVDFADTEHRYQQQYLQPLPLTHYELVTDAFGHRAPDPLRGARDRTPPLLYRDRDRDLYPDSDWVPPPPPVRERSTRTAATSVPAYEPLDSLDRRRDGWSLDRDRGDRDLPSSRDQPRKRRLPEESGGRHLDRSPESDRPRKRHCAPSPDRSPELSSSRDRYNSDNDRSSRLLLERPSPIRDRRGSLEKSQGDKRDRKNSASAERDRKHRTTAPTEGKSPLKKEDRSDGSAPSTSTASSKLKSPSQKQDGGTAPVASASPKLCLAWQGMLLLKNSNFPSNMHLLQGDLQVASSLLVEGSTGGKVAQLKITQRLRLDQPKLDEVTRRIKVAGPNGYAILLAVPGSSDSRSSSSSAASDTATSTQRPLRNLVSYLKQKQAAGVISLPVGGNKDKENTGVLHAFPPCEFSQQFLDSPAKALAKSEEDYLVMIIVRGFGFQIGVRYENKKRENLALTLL", "UniProt O43586": "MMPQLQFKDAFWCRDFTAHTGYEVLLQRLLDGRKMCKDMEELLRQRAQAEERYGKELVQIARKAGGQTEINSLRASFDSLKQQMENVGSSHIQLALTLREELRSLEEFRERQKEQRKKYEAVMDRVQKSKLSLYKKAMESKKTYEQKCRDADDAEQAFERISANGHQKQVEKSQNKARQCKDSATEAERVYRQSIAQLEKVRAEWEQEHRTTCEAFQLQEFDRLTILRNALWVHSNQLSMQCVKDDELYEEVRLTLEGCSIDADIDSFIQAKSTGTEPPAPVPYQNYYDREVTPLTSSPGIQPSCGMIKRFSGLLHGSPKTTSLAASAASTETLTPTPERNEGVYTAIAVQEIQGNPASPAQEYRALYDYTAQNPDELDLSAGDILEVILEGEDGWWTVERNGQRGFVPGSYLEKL"}, "source": "the supplement of paper PMC7666118", "note": "The list shows a part of the results."}
{"compound": "COc1ccc(Cn2ccc3ccc(C(=O)NO)cc32)cc1", "assay": "dose-dependent thermal stabilisation call (2D-TPP, DLPTP, 10% FDR) (binary (1 = stabilised)); higher = stabilised by the compound", "settings": "system: HL-60 intact cells; concentration range 0.04-10 µM"}
{"target": "PXN (UniProt P49023)", "dose-dependent thermal stabilisation call": "inactive: 0"}
{"target": "RAB37 (UniProt Q96AX2)", "dose-dependent thermal stabilisation call": "inactive: 0"}
{"target": "PUS1 (UniProt Q9Y606)", "dose-dependent thermal stabilisation call": "inactive: 0"}
{"target": "PSMB2 (UniProt P49721)", "dose-dependent thermal stabilisation call": "inactive: 0"}
{"target": "PRUNE (UniProt Q86TP1)", "dose-dependent thermal stabilisation call": "inactive: 0"}
{"target": "RABL4 (UniProt Q9BW83)", "dose-dependent thermal stabilisation call": "inactive: 0"}
{"target": "RABGAP1 (UniProt Q9Y3P9)", "dose-dependent thermal stabilisation call": "inactive: 0"}
{"target": "RAB31 (UniProt Q13636)", "dose-dependent thermal stabilisation call": "inactive: 0"}
{"target": "PURB (UniProt Q96QR8)", "dose-dependent thermal stabilisation call": "inactive: 0"}
{"target": "PSMA1 (UniProt P25786)", "dose-dependent thermal stabilisation call": "inactive: 0"}
{"target": "QSOX1 (UniProt O00391)", "dose-dependent thermal stabilisation call": "inactive: 0"}
{"target": "RAP2B (UniProt P61225)", "dose-dependent thermal stabilisation call": "inactive: 0"}
{"target": "PSMC2 (UniProt P35998)", "dose-dependent thermal stabilisation call": "inactive: 0"}
{"target": "PSMD4 (UniProt P55036)", "dose-dependent thermal stabilisation call": "inactive: 0"}
{"target": "PWP1 (UniProt Q13610)", "dose-dependent thermal stabilisation call": "inactive: 0"}
{"target": "RAB5B (UniProt P61020)", "dose-dependent thermal stabilisation call": "inactive: 0"}
{"target": "RBM15B (UniProt Q8NDT2)", "dose-dependent thermal stabilisation call": "inactive: 0"}
{"target": "PTPRCAP (UniProt Q14761)", "dose-dependent thermal stabilisation call": "inactive: 0"}
{"target": "RBM16 (UniProt Q9UPN6)", "dose-dependent thermal stabilisation call": "inactive: 0"}
{"target": "RAD51C (UniProt O43502)", "dose-dependent thermal stabilisation call": "inactive: 0"}
{"target": "PSMD3 (UniProt O43242)", "dose-dependent thermal stabilisation call": "inactive: 0"}
{"target": "PXK (UniProt Q7Z7A4)", "dose-dependent thermal stabilisation call": "inactive: 0"}
{"target": "PRPF38B (UniProt Q5VTL8)", "dose-dependent thermal stabilisation call": "inactive: 0"}
{"target": "RAB21 (UniProt Q9UL25)", "dose-dependent thermal stabilisation call": "inactive: 0"}
{"target": "RASAL3 (UniProt Q86YV0)", "dose-dependent thermal stabilisation call": "inactive: 0"}
{"target": "RBM12B (UniProt Q8IXT5)", "dose-dependent thermal stabilisation call": "inactive: 0"}
{"target": "R3HDM2 (UniProt Q9Y2K5)", "dose-dependent thermal stabilisation call": "inactive: 0"}
{"target": "RAD51AP1 (UniProt Q96B01)", "dose-dependent thermal stabilisation call": "inactive: 0"}
{"target": "RASA2 (UniProt Q15283)", "dose-dependent thermal stabilisation call": "inactive: 0"}
{"target": "PSMF1 (UniProt Q92530)", "dose-dependent thermal stabilisation call": "inactive: 0"}
{"target": "RASSF5 (UniProt Q8WWW0)", "dose-dependent thermal stabilisation call": "inactive: 0"}
{"target": "RAB14 (UniProt P61106)", "dose-dependent thermal stabilisation call": "inactive: 0"}
{"target": "RAPGEF1 (UniProt Q13905)", "dose-dependent thermal stabilisation call": "inactive: 0"}
{"target": "RAF1 (UniProt P04049)", "dose-dependent thermal stabilisation call": "inactive: 0"}
{"target": "RAB3IP (UniProt Q96QF0)", "dose-dependent thermal stabilisation call": "inactive: 0"}
{"target": "RBM15 (UniProt Q96T37)", "dose-dependent thermal stabilisation call": "inactive: 0"}
{"target": "PSTPIP1 (UniProt O43586)", "dose-dependent thermal stabilisation call": "inactive: 0"}
{"target": "PSMD10 (UniProt O75832)", "dose-dependent thermal stabilisation call": "inactive: 0"}
